Measured values reported in the supplement of paper PMC10849652.
The list shows a part of the results.

The chains behind the UniProt entries cited, without tags or fusion partners. Where a name states a change or a piece, a line headed by the entry shows the natural chain unless it says otherwise.
UniProt Q9UKM9: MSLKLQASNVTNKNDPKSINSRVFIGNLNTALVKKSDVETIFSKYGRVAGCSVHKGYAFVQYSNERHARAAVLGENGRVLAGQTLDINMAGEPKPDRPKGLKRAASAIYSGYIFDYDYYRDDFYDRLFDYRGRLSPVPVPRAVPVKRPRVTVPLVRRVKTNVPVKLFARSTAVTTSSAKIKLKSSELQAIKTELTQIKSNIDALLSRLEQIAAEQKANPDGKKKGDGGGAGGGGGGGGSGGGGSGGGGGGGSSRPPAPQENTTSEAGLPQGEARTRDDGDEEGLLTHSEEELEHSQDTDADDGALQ
UniProt P20339: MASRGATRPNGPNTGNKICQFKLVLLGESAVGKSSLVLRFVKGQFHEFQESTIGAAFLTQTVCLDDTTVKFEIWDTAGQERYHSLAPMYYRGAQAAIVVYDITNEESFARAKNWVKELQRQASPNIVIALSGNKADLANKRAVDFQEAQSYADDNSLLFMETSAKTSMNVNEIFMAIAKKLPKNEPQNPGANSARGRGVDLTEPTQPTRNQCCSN
UniProt Q9NP72: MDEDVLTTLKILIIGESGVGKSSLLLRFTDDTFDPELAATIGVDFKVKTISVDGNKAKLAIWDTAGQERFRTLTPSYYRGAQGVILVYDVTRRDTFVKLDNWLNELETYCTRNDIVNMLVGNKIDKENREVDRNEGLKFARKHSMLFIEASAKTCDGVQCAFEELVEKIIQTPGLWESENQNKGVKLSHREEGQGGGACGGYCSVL
UniProt P11234: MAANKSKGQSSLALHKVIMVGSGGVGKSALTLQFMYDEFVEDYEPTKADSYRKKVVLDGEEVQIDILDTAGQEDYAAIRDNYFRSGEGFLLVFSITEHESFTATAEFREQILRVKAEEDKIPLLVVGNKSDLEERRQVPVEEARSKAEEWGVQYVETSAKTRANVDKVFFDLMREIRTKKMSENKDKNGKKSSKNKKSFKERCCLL
UniProt Q9ULZ3, whole entry, looked up: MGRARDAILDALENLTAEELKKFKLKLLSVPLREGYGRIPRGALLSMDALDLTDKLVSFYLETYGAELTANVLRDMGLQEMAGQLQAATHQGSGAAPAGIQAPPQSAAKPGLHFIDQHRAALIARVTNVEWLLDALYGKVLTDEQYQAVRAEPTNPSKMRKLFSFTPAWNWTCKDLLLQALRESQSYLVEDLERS
UniProt O60518: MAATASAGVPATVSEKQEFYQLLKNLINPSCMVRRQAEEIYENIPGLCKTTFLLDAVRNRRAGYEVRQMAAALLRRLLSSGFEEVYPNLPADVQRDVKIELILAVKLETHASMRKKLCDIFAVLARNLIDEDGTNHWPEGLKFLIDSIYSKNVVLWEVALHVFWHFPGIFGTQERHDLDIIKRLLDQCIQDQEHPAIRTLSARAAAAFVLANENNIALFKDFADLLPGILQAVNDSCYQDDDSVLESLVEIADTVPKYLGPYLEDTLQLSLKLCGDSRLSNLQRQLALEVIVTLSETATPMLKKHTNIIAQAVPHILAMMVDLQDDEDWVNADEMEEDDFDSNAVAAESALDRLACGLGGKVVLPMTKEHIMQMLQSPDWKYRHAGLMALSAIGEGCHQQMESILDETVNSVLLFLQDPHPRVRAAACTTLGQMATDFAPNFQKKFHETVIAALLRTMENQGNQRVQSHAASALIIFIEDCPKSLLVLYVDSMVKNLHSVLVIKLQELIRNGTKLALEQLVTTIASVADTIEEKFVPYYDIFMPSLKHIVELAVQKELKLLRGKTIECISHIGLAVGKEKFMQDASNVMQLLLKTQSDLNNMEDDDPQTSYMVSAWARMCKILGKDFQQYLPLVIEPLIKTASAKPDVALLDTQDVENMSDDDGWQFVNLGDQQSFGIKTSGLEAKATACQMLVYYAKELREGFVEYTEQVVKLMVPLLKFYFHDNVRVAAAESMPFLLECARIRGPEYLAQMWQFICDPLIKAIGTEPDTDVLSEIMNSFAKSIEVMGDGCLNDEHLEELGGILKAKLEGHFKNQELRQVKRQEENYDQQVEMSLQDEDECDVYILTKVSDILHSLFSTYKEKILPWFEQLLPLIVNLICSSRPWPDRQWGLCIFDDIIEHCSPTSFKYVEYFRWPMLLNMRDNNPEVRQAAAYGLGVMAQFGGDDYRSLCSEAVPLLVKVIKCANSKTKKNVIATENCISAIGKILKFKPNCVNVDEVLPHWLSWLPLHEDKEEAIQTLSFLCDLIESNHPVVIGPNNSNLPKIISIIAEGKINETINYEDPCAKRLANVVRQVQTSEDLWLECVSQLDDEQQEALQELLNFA
UniProt P11233: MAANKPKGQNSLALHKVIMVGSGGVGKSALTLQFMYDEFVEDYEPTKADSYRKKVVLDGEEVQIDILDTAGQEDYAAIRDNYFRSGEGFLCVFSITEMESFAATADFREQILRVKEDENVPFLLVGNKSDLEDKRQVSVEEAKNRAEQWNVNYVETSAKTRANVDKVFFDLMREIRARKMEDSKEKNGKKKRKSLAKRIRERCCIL
UniProt Q9BRP8: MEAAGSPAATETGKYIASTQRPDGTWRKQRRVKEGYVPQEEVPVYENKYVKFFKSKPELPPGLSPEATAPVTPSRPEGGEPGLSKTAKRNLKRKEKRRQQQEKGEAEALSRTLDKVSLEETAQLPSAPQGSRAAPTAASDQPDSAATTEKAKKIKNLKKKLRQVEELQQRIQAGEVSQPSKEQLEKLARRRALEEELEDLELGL
UniProt Q8TBN0: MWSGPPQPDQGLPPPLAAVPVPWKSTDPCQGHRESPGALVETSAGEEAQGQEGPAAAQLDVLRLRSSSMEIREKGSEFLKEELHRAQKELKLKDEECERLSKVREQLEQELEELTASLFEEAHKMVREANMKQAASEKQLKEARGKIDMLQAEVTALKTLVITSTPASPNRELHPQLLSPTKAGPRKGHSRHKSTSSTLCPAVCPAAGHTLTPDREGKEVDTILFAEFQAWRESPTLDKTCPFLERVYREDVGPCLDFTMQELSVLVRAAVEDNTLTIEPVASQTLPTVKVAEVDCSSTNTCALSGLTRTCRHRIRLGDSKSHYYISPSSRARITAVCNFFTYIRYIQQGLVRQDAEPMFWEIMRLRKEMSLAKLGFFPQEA
UniProt Q9ULC3: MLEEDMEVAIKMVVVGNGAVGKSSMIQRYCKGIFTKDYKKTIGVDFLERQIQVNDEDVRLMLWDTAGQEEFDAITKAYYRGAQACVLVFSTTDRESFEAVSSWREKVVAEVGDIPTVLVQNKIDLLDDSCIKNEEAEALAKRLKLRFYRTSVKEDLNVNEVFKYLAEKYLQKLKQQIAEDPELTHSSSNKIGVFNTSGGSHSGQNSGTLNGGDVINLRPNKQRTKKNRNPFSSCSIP
UniProt P09417: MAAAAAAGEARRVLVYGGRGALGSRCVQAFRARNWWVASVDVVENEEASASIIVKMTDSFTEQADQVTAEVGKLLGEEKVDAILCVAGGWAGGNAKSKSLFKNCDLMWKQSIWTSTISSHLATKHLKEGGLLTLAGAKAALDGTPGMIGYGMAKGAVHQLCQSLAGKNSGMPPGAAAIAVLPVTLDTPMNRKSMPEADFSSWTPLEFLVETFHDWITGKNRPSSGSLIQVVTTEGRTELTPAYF
UniProt Q53H96: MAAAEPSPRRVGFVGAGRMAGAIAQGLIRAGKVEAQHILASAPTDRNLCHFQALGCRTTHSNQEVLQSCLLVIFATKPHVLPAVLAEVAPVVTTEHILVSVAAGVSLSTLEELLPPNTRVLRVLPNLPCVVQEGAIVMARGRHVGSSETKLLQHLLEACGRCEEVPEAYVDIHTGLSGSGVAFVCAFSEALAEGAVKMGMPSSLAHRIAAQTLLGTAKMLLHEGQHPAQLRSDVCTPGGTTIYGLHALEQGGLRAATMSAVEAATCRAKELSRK
UniProt Q9H6Z4: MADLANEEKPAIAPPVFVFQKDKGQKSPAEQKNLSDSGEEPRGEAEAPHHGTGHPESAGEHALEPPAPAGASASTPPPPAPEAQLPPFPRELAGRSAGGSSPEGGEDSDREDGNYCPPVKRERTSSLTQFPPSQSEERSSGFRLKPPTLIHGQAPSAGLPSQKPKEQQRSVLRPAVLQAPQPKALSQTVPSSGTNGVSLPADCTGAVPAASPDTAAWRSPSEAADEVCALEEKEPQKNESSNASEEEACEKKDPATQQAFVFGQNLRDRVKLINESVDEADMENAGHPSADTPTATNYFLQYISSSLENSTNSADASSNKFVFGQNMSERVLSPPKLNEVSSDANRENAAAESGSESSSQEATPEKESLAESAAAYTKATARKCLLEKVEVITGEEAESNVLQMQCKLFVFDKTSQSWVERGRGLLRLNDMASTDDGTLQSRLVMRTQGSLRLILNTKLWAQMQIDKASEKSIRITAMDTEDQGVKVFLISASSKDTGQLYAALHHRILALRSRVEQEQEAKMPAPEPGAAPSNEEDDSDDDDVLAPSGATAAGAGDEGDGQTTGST
UniProt P61018: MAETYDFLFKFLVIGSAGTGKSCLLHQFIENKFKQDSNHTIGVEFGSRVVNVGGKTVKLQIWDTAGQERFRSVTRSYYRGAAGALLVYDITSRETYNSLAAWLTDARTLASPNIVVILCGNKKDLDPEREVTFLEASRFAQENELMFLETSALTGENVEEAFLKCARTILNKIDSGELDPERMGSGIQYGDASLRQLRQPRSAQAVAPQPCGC
UniProt Q9BXR0: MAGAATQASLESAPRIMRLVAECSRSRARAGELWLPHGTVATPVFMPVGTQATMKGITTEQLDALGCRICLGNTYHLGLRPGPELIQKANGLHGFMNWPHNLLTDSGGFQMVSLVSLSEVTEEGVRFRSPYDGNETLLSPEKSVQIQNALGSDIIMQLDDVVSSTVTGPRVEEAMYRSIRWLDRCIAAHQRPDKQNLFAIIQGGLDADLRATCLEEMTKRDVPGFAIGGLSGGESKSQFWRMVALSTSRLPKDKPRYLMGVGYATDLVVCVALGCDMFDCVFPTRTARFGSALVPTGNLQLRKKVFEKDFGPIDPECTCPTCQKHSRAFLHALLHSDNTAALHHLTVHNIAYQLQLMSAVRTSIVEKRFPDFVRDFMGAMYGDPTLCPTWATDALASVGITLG
UniProt Q9NS91, whole entry, looked up: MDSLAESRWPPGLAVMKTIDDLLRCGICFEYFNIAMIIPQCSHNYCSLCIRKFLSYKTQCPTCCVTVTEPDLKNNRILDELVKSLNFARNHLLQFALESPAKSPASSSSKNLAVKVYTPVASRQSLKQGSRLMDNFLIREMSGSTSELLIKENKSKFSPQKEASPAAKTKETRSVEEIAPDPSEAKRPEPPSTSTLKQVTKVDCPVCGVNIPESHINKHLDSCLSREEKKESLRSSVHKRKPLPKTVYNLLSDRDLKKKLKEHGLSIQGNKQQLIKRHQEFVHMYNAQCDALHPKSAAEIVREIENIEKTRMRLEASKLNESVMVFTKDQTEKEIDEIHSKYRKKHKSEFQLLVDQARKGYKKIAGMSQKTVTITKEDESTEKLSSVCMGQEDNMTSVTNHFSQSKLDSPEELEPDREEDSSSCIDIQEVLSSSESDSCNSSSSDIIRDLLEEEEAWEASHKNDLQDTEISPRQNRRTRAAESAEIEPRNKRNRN
UniProt P54727: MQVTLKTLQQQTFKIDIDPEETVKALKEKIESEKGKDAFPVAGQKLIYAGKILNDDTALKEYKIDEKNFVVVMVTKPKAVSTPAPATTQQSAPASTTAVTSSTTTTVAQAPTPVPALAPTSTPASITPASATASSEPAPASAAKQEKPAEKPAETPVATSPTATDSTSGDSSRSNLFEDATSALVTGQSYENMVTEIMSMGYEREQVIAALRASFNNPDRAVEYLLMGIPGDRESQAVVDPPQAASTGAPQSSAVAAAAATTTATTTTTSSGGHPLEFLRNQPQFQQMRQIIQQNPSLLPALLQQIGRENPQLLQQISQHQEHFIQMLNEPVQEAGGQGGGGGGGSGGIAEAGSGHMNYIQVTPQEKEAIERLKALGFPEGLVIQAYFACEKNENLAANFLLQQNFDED
UniProt Q3YEC7: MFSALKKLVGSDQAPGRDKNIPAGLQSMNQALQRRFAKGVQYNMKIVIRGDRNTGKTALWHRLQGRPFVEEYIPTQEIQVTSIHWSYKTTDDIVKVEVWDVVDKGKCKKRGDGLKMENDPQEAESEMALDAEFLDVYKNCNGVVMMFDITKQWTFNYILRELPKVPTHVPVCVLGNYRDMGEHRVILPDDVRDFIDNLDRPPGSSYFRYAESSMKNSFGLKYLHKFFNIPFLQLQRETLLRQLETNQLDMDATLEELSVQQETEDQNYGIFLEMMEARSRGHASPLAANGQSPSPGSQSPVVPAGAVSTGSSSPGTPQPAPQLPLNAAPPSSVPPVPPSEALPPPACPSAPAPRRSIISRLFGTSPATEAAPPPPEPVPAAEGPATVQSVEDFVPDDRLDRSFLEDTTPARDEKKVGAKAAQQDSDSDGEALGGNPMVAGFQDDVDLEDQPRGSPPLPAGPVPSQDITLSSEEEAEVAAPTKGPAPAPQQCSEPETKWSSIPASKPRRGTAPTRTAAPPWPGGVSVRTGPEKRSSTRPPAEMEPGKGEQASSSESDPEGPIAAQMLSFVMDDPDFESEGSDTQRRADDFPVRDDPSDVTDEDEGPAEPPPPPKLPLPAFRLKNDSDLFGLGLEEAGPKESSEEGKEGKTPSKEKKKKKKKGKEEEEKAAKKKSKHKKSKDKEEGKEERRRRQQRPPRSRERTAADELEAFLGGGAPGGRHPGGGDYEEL

Legend:
Test in all cases: log2 fold change, soluble protein after heating vs DMSO (PISA); higher = thermal stabilisation; K562 lysate, 10 uM; active = over 0.2 and 3.5 SD of the protein, either way, in both replicates (recomputed)
[1] = compound: C1=CC=C(C=C1)[C@H](COC2=CC3=C(C=C2)NC(=O)N3)NC(=O)C4=CC=CN(C4=O)CC5=CC(=C(C=C5)F)F
Method in brief: (§1)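 Log-two fold change in thermal stability relative to solvent controls is reported from duplicates. For each sample, crude K562 extract from dounce-homogenised pellets in PBS pH 7.4 with 1 mM MgCl2, at 1 mg/mL protein, was treated with 10 μM compound for 30 min. Aliquots heated for 3 min across 48°C-58°C were pooled, brought to 0.5% NP-40 at 4°C and cleared at 21,000xg for 90 min. The supernatant was quantified by TMTpro 16plex LC-MS/MS with channel sums equalised.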

[2] = compound: CC1=C(SC2=C1C(=N[C@H](C3=NN=C(N32)C)CC(=O)N)C4=CC=C(C=C4)Cl)C
Method in brief: as §1

[3] = compound: CC1=C2C(=CC=C1)N=C(N(C2=O)C3=CC=CC=C3C)CN4C=NC5=C(N=CN=C54)N
Method in brief: as §1

[4] = compound: Cc1sc2c(c1C)C(c1ccc(Cl)cc1)=N[C@@H](CC(=O)OC(C)(C)C)c1nnc(C)n1-2
Method in brief: as §1

[5] = compound: c1ccc([C@@H]2C[C@H]2NC2CCNCC2)cc1
Method in brief: as §1

Measured: log2 fold change

RALY (UniProt Q9UKM9)
inactive: [1] 0.046 | [2] 0.013 | [3] 0.025 | [4] 0.03 | [5] 0.026

RAB5A (UniProt P20339)
inactive: [1] -0.061 | [2] 0.017 | [3] 0.033 | [4] 0.017 | [5] 0.004

RAB18 (UniProt Q9NP72)
inactive: [1] -0.029 | [2] -0.021 | [3] 0.033 | [4] 0.051 | [5] -0.004

RALB isoform 2 (UniProt P11234)
inactive: [1] -0.029 | [2] 0.002 | [3] 0.109 | [4] 0.013 | [5] -0.063

RAB18 isoform 2 (UniProt Q9NP72)
inactive: [1] 0.006 | [2] -0.009 | [3] 0.06 | [4] -0.004 | [5] -0.081

PYCARD (UniProt Q9ULZ3)
inactive: [1] 0.009 | [2] -0.031 | [3] 0.006 | [4] 0.008 | [5] -0.01

RANBP6 (UniProt O60518)
inactive: [1] 0.013 | [2] -0.047 | [3] 0.046 | [4] 0.074 | [5] 0.005

RALA (UniProt P11233)
inactive: [1] -0.013 | [2] 0.071 | [3] -0.008 | [4] -0.004 | [5] -0.225

PYROXD1 (UniProt Q8WU10)
inactive: [1] 0.035 | [2] 0.004 | [3] 0.188 | [4] 0.039 | [5] -0.066

RAB13 (UniProt P51153)
inactive: [1] 0.002 | [2] -0.064 | [3] 0.034 | [4] 0.064 | [5] 0.06

PYM1 (UniProt Q9BRP8)
inactive: [1] -0.031 | [2] 0.053 | [3] 0.046 | [4] 0.018 | [5] 0.014

RAB1A (UniProt P62820)
inactive: [1] -0.04 | [2] -0.019 | [3] 0.035 | [4] 0.032 | [5] 0.005

RAB3IL1 (UniProt Q8TBN0)
inactive: [1] 0.047 | [2] 0.008 | [3] 0.02 | [4] 0.007 | [5] 0.039

RAB23 (UniProt Q9ULC3)
inactive: [1] 0.074 | [2] -0.032 | [3] 0.037 | [4] 0.042 | [5] -0.061

RAB1B (UniProt Q9H0U4)
inactive: [1] -0.015 | [2] 0.021 | [3] 0.056 | [4] 0.013 | [5] -0.17

QDPR (UniProt P09417)
inactive: [1] 0.005 | [2] 0.012 | [3] 0.001 | [4] 0.013 | [5] -0.008

PYCR3 (UniProt Q53H96)
inactive: [1] 0.015 | [2] -0.054 | [3] 0.033 | [4] 0.003 | [5] -0.036

RANBP3 (UniProt Q9H6Z4)
inactive: [1] 0.027 | [2] -0.002 | [3] 0.023 | [4] -0.021 | [5] -0.006

RAB4B isoform 2 (UniProt P61018)
inactive: [1] -0.018 | [2] -0.01 | [3] 0.047 | [4] 0.098 | [5] 0.003

QTRT1 (UniProt Q9BXR0)
inactive: [1] 0.019 | [2] 0.007 | [3] 0.024 | [4] -0.005 | [5] -0.087

RAD18 (UniProt Q9NS91)
inactive: [1] -0.004 | [2] -0.051 | [3] 0.002 | [4] 0.002 | [5] -0.021

RANBP17 (UniProt Q9H2T7)
inactive: [1] -0.191 | [2] -0.261 | [3] 0.063 | [4] -0.18 | [5] -0.112

RAD23B (UniProt P54727)
inactive: [1] -0.006 | [2] -0.04 | [3] -0.001 | [4] -0.068 | [5] -0.028

RABL6 (UniProt Q3YEC7)
inactive: [1] 0.058 | [2] 0.004 | [3] 0.031 | [4] 0.013 | [5] -0.009
